# US20190083521A1, “COMBINATION THERAPY FOR TREATING CANCER” (Epizyme, Inc., priority 2014, published 2019)
# Test system: MOLM-13 (MLL-AF9) cells
# Test: Combination proliferation assay with Compound A2 (CellTiter-Glo, Chou-Talalay CI)
# Assay type: cell-based, human
# Conditions: 7 Day Cotreatment Model
# Protocol: The acute myelogenous leukemia cell lines MV4-11 (MLL-AF4) and MOLM-13 (MLL-AF9) were obtained from American Type Culture Collection (ATCC; Rockville, Md.) and Deutsche Sammlung von Mikroorganismen and Zellkulturen (DSMZ; Braunschweig, Germany) respectively.
# Studies were performed using MLL-rearranged cell lines in vitro to evaluate the anti-proliferative effect of a combination of two agents together on cell growth. Initial proliferation studies were performed to determine the IC50 of a given compound in each cell line. The cell counts were measured by ATP quantitation using the Promega Cell Titer Glo kit and luminescence values corresponded to the amount of ATP in a given well.
# Compounds were evaluated for synergy in the co-treatment phase by testing the compounds in a concentration range which was bracketed around their IC50 values. […]
# The drug combination analysis was performed utilizing the Chou-Talalay method Synergy was determined using the software package Calcusyn by Biosoft. The combination index (CI) is a quantitative term used to describe the level of synergy or antagonism in a given test system. […]
# The HP-D300 digital dispenser (Tecan) was used to dispense compounds in a combinatorial matrix. […] Cell viability was measured via ATP content using CellTiter-Glo® (Promega).
# Viability was determined using CellTiter-Glo® (Promega). […]
smiles,measurement,value
O=C1OCCN1/N=C/c1ccc([N+](=O)[O-])o1 [Furazolidone],Combination effect with Compound A2 (Table 4),Combination Benefit
